Experimental data: PubChem BioAssay AID720522 (National Center for Advancing Translational Sciences (NCATS), 2013)
Screen size: about 1,400 compounds; about 60 (4%) were called active. About 7% were inconclusive and are not listed. Calls come from the whole dose curve; as a rule, active = well fitted inhibition curve with a large enough effect; inconclusive = small, poorly fitted or top-dose-only effect; inactive = flat fitted curve, though single readings scatter. The list shows a part of the results, in another mix than the full data.

By UniProt entry, the sequences of proteins in these tests, tags left out.
UniProt P08659, whole entry, looked up: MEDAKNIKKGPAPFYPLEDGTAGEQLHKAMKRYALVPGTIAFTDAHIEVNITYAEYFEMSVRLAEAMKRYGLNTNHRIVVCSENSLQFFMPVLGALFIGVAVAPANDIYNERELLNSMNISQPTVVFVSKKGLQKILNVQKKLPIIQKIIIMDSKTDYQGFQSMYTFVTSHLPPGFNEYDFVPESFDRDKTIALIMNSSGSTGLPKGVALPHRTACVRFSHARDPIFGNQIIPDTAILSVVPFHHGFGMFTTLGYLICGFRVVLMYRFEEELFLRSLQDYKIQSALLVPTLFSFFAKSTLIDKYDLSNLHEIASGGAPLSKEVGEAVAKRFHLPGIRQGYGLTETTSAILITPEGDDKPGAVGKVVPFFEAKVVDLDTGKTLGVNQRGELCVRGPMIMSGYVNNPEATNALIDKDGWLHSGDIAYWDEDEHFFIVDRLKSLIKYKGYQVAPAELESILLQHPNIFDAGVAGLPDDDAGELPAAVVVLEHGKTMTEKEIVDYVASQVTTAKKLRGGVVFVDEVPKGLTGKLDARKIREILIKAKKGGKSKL

molecular target: Luciferin 4-monooxygenase (Photinus pyralis) (UniProt P08659); assay: Nrf2 qHTS screen for inhibitors: Purified Fluc Biochemical Counterscreen for Hit Validation; conditions: purified firefly luciferase, luminescence inhibition; series mostly up to 57.5 µM; activity change, negative = inhibition: at the top concentration; note: nearly all actives have a fitted effect of over 65% in size
Excerpt: Nrf2 is a transcription factor that maintains cellular redox homoestasis and protects cells from xenobiotics. Nrf2 binds to the antioxidant response element (ARE) to induce gene expression of a broad spectrum of genes that encode for antioxidants. […] Finding a small molecule that act as an inhibitor of Nrf2 function would represent a novel therapeutic target that could lead to improvement in survival of patients undergoing chemo- and/or radio- therapy.
A biochemical assay in 1536 well format was developed and utilized to remove compounds that inhibit the luciferase reporter (Fluc) rather than the Nrf2 enzyme. Inhibition of this assay = false positive inhibition of Nrf2.
NIH Chemical Genomics Center [NCGC]
NIH Molecular Libraries Probe Centers Network [MLPCN]
Assay Submitter (PI): Shyam Biswal, Johns Hopkins University
[1] Shibata T., et al., Genetic alteration of Keap1 confers constitutive Nrf2 activation and resistance to chemotherapy in gallbladder cancer. Gastroenterology, 2008.
[2] Sjoblom T., et al., The consensus coding sequences of human breast and colorectal cancers. Science, 2006.
Three microliter of substrate solution containing 50mM Tris acetate, 13.3 mM Mg-acetate, 0.01mM ATP, 0.01% Tween, 0.05% BSA and 0.01mM D-Luciferin (Sigma, #L9504) was dispensed into 1536 well white solid bottom assay plate (Greiner Bio, #789173-F). Twenty-three nanoliter of compounds dissolved in DMSO at different concentrations was added to the plate using a Kalypsys 1536-pin tool. Then 1 uL of firefly luciferase reagent containing 50mM Tris-acetate and 0.04uM P. pyralis luciferase (Sigma, #L9506) was added. The final DMSO concentration was maintained at 0.56%. Luminescence signal was acquired using the PerkinElmer Viewlux plate reader after incubation at room temperature for 10 minutes.
% is set by controls: 0 for no effect and ±100 for the full control effect; potency is the fitted concentration of half-maximal effect.

SMILES | activity change, negative = inhibition | Potency
CCC(C)(O)C(=O)OC1C(=O)OC2CC3C(C)=CC(=O)C(O)C3(C)C3C4(O)OCC23C1C(C)C4O (stereo not given) | inactive: -0.132% | 
c1ccc2c(c1)[I+]c1ccccc1-2 | inactive: 3.24% | 
CC(=NNC(=S)N1CC2CCC(CC2)C1)c1nccs1 |  | active: 19 µM
COc1cccc(NC(=O)CCc2nc(-c3ccc(C(C)(C)C)cc3)no2)c1 |  | active: 2.39 µM
CC1=CC2OC3CC4OC(=O)C=CC=CC(C(C)O)OCC(O)C(C)CC(=O)OCC2(CC1O)C4(C)C31CO1 (stereo not given) | inactive: -12.6% | 
